In paper PMC12428531:
Results are given in words; binding and its absence hold for the method and conditions named. Binding seen in cells or lysates may run through a third protein. Some binding calls cover weakened binding; strength is not graded here.

Sequences of proteins named here, by UniProt entry; tags and fusion partners are left off. Residues count along the entry.
UniProt P21802, residues 22-821: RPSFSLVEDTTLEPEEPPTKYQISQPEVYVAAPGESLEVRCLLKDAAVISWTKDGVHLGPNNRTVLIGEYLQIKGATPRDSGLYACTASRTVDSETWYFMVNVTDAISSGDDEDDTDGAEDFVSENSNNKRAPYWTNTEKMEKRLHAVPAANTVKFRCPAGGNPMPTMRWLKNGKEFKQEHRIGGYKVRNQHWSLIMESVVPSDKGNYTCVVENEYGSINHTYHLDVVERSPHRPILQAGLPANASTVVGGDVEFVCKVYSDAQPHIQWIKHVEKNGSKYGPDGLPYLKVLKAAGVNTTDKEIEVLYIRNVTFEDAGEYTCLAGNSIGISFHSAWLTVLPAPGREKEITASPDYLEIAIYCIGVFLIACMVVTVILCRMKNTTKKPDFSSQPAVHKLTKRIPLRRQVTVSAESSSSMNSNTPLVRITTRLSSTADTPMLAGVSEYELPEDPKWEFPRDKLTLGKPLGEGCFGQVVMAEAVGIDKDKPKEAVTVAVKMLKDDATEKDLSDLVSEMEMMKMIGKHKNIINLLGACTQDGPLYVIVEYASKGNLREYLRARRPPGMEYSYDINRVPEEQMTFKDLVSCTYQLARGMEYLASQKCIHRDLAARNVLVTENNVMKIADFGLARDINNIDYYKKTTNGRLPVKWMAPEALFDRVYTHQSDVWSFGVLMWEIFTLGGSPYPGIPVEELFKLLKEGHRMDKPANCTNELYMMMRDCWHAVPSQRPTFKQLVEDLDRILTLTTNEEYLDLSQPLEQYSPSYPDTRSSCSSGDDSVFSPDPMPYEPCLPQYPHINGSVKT
UniProt O95832: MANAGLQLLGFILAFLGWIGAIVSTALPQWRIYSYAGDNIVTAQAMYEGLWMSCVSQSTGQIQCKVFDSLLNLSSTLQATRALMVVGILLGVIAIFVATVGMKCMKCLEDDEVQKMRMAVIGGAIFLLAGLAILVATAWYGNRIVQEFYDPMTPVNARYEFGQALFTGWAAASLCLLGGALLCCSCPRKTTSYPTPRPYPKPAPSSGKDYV

Experiments:
[1] = biological target: FGFR2 (human (endogenous in GIST T-1R)) (UniProt P21802); assay: co-IP; endogenous proteins in GIST T-1R whole cell lysates (TEB buffer: 50 mM Tris-HCl pH 7.5, 150 mM NaCl, 1% NP-40, 10% glycerol); precipitated with anti-CLDN1 mAb (sc-166338) or anti-FGFR2 Ab (ab281925) overnight at 4 °C, protein A and G Sepharose beads, blot for the partner; both directions
[2] = biological target: claudin-1 (human (endogenous in GIST T-1R)) (UniProt O95832); assay: as above

| Substance | binding [1] | binding [2] |
| --- | --- | --- |
| claudin-1 (from UniProt O95832 1-211) | binds | – |
| FGFR2 (from UniProt P21802 22-821) (receptor) | – | binds |
